Results reported in PubChem BioAssay AID540256 (National Center for Advancing Translational Sciences (NCATS), 2011).
Out of some 300,000 compounds screened, about 3,700 (1.2%) were called active. Inconclusive results, whose numbers are uncertain, are shown with a selection of clear calls. The call rests on the fitted dose curve; tested in HEK293 cells. A potency beside an inconclusive call is a rough fit, not a confirmed value.

assay: qHTS for Inhibitors of binding or entry into cells for Lassa Virus; conditions: Lassa virus pseudotype entry inhibition, cell reporter; activity change, negative = inhibition: at 37.9 µM (top of the series) unless noted; further: nearly all actives have a fitted effect of over 50% in size
On the % scale 0 is the no-effect control and ±100 the full control effect; potency means the concentration at half of the fitted maximal effect.

Row | SMILES | Potency | activity change, negative = inhibition
1 | CN(C)CCN(C(=O)c1ccc(S(=O)(=O)N(C)c2ccccc2)cc1)c1nc2cc3c(cc2s1)OCO3 | inconclusive: 12.6 µM [activator, partial curve, poor fit] | –
2 | COc1cc(/C=C(\C#N)C(=O)NCC2CCCO2)ccc1OCC(N)=O (stereo unspecified) | inconclusive: 11.2 µM [activator, single point] | –
3 | CCOC(=O)N1CCN(C(=O)c2oc3ccc(S(=O)(=O)N(CC)CC)cc3c2C)CC1 | inconclusive: 14.1 µM [inhibitor, single point] | –
4 | C/C(=N\NC(=O)c1ccoc1C)c1ccccc1O | inconclusive: 3.55 µM [activator, full curve, poor fit] | –
5 | CN(C)S(=O)(=O)N(CC(=O)NCCSc1ccc(Cl)cc1)c1ccccc1 | inconclusive: 3.16 µM [activator, single point] | –
6 | CCC(C(=O)Nc1cc(OC)ccc1OC)n1nc(-c2ccccc2)c2c(c1=O)CCCC2 (stereo unspecified) | inconclusive: 17.8 µM [inhibitor, single point] | –
7 | Nn1c(SCc2ccc(F)cc2)nnc1-c1cccnc1 | – | inactive: 13.4%
8 | c1ccc2c(c1)nc1n2CCN1CCNC1CCCCC1 | – | inactive: 9.07%
9 | CC(=O)Nc1ccc(C=C(C(C)=O)C(C)=O)cc1 | – | inactive: -8.5%
10 | COc1ccc(NS(=O)(=O)c2ccc(N3CCOCC3)c(NC(=O)c3ccccc3Br)c2)cc1 | inconclusive: 17.8 µM [inhibitor, single point] | –
11 | CCN1CNC(=S)N(c2cccc(C)c2)C1 | inconclusive: 1.58 µM [inhibitor, partial curve, poor fit] | –
12 | Cc1cc(N2CCN(c3ncccn3)CC2)nc2c(C)cccc12 | – | inactive: -10.4%
13 | Cn1c2ccccc2c2c(C(=O)N3CCN(c4cccc(C(F)(F)F)c4)CC3)cn(C3CCCCC3)c(=O)c21 | inconclusive: 20 µM [inhibitor, single point] | –
14 | CN(C)S(=O)(=O)c1ccc(NC(=O)c2ccccn2)cc1 | inconclusive: 14.1 µM [inhibitor, single point] | –
15 | CC/C(=N\NC(N)=O)c1c(O)[nH]c(=O)[nH]c1=O | inconclusive: 3.16 µM [inhibitor, single point] | –
16 | CCOC(=O)c1cccc(NC(=O)/C=C/c2ccc([N+](=O)[O-])cc2)c1 | inconclusive: 7.94 µM [inhibitor, partial curve, poor fit] | –
17 | COc1ccc(C2CCCN2C(=S)Nc2cccc(C)c2C)cc1OC (stereo unspecified) | inconclusive: 5.01 µM [inhibitor, full curve, poor fit] | –
18 | O=C1NCCN1C(=O)c1ccco1 | – | inactive: 0.569%
19 | CCN(c1ccccc1)S(=O)(=O)c1cccc(C(=O)NCC(c2ccc(F)cc2)N2CCOCC2)c1 (stereo unspecified) | inconclusive: 8.91 µM [inhibitor, partial curve, poor fit] | –
20 | CC(C)c1nc(SCC(=O)Nc2nc3c(s2)CCCC3)c2ccccc2n1 | inconclusive: 29.1 µM [inhibitor, single point] | –
21 | Cc1cccc(C(=O)Nc2cc(S(=O)(=O)N3CCOCC3)ccc2N2CCCCC2)c1 | inconclusive: 11.2 µM [inhibitor, partial curve, poor fit] | –

Row | SMILES | Potency | activity change, negative = inhibition
22 | Cc1cccc(N2CCN(S(=O)(=O)c3ccc4c(c3)OCCO4)CC2)c1C | inconclusive: 35.5 µM [inhibitor, single point] | –
23 | CCOc1cc(C(=O)N/N=C/C(Br)=C/c2ccccc2)cc(OCC)c1OCC | inconclusive: 12.6 µM [inhibitor, partial curve, poor fit] | –
24 | O=C(NCCN1CCOCC1)c1ccc(Cl)c(S(=O)(=O)N2CCOCC2)c1 | inconclusive: 25.1 µM [activator, single point] | –
25 | O=C(NCc1nnc(SCC(=O)N2CCCc3ccccc32)n1-c1ccccc1)c1cccc2ccccc12 | inconclusive: 11.2 µM [inhibitor, partial curve, poor fit] | –
26 | COc1ccc(C(=O)N2CCCC(CCC(=O)NCc3ccccc3F)C2)c(OC)n1 (stereo unspecified) | – | inactive: 6.66% [at 46.1 µM]
27 | Cc1cccnc1NC(=O)c1ccc(Br)o1 | – | inactive: 7.1%
28 | CSc1ccccc1C(=O)NCCc1ccc(S(=O)(=O)N2CCCCC2)cc1 | – | inactive: 0.348%
29 | CN(C)CCCN(C(=O)c1ccc(S(=O)(=O)N2CCc3ccccc32)cc1)c1nc2c(Cl)cccc2s1 | inconclusive: 35.5 µM [inhibitor, single point] | –
30 | COc1ccc2oc(=O)c(-c3nc4ccc(C)cc4[nH]3)cc2c1 | – | inactive: -5.06% [at 46.1 µM]
31 | COc1ccc(C(=O)N2CCC(=O)N(C(CO)Cc3ccccc3)CC2)cc1 (stereo unspecified) | inconclusive: 0.0052 µM [inhibitor, full curve, poor fit] | –
32 | COc1ccc(C(=O)C(CCCCC(CN(C)C)C(=O)c2ccc(OC)cc2)CN(C)C)cc1 (stereo unspecified) | inconclusive: 10 µM [inhibitor, partial curve, poor fit] | –
33 | CCC(=O)N1CCc2cc(S(=O)(=O)NCCC(=O)Nc3cccc(SC)c3)ccc21 | inconclusive: 11.2 µM [activator, partial curve, poor fit] | –
34 | O=C(COc1ccccc1F)Nc1ccc2nc(SCc3ccccc3)sc2c1 | – | inactive: -14.6% [at 46.1 µM]
35 | O=C1c2ccccc2C(=O)N1CCc1c[nH]c2ccc(O)cc12 | – | inactive: 15.8%
36 | CCOC(=O)NC1(Nc2cccc(Cl)c2)Oc2ccccc2O1 | inconclusive: 31.6 µM [inhibitor, single point] | –
37 | COc1ccc(CN2C(=O)c3ccccc3C2C(=O)NC2CCCCCC2)c(OC)c1 (stereo unspecified) | inconclusive: 12.6 µM [inhibitor, partial curve, poor fit] | –
38 | O=C(Nc1ccc(S(=O)(=O)N2CCCC2)cc1)N1c2ccccc2Sc2ccccc21 | inconclusive: 4.61 µM [inhibitor, full curve, poor fit] | –
39 | O=C(N/N=C\c1cc([N+](=O)[O-])ccc1N1CCCC1)c1ccccn1 | – | inactive: -9.62%
40 | CC(C)(C)c1ccc(S(=O)(=O)NCc2ccc(C(=O)N3CCCC3)cc2)cc1 | inconclusive: 0.461 µM [inhibitor, full curve, poor fit] | –
41 | O=C(COC(=O)c1cnc(Cl)c(Cl)c1)Nc1ccc(S(=O)(=O)N2CCCC2)cc1 | inconclusive: 0.259 µM [inhibitor, single point] | –

Gathered by group: the compounds so far with an NH in an aromatic ring (three)
Row | SMILES | Potency | activity change, negative = inhibition
15 | CC/C(=N\NC(N)=O)c1c(O)[nH]c(=O)[nH]c1=O | inconclusive: 3.16 µM [inhibitor, single point] | –
30 | COc1ccc2oc(=O)c(-c3nc4ccc(C)cc4[nH]3)cc2c1 | – | inactive: -5.06% [at 46.1 µM]
35 | O=C1c2ccccc2C(=O)N1CCc1c[nH]c2ccc(O)cc12 | – | inactive: 15.8%
